Source: article PMC11024517
Results are given in words; binding and its absence hold for the method and conditions named. In cells and extracts the contact can be indirect. A yes stands for co-enrichment or nearness to the bait. Other partners may have been found.

Molecular target: T1, 53BP1 (immunoprecipitates of unstressed cells), Q12888
T1 chain: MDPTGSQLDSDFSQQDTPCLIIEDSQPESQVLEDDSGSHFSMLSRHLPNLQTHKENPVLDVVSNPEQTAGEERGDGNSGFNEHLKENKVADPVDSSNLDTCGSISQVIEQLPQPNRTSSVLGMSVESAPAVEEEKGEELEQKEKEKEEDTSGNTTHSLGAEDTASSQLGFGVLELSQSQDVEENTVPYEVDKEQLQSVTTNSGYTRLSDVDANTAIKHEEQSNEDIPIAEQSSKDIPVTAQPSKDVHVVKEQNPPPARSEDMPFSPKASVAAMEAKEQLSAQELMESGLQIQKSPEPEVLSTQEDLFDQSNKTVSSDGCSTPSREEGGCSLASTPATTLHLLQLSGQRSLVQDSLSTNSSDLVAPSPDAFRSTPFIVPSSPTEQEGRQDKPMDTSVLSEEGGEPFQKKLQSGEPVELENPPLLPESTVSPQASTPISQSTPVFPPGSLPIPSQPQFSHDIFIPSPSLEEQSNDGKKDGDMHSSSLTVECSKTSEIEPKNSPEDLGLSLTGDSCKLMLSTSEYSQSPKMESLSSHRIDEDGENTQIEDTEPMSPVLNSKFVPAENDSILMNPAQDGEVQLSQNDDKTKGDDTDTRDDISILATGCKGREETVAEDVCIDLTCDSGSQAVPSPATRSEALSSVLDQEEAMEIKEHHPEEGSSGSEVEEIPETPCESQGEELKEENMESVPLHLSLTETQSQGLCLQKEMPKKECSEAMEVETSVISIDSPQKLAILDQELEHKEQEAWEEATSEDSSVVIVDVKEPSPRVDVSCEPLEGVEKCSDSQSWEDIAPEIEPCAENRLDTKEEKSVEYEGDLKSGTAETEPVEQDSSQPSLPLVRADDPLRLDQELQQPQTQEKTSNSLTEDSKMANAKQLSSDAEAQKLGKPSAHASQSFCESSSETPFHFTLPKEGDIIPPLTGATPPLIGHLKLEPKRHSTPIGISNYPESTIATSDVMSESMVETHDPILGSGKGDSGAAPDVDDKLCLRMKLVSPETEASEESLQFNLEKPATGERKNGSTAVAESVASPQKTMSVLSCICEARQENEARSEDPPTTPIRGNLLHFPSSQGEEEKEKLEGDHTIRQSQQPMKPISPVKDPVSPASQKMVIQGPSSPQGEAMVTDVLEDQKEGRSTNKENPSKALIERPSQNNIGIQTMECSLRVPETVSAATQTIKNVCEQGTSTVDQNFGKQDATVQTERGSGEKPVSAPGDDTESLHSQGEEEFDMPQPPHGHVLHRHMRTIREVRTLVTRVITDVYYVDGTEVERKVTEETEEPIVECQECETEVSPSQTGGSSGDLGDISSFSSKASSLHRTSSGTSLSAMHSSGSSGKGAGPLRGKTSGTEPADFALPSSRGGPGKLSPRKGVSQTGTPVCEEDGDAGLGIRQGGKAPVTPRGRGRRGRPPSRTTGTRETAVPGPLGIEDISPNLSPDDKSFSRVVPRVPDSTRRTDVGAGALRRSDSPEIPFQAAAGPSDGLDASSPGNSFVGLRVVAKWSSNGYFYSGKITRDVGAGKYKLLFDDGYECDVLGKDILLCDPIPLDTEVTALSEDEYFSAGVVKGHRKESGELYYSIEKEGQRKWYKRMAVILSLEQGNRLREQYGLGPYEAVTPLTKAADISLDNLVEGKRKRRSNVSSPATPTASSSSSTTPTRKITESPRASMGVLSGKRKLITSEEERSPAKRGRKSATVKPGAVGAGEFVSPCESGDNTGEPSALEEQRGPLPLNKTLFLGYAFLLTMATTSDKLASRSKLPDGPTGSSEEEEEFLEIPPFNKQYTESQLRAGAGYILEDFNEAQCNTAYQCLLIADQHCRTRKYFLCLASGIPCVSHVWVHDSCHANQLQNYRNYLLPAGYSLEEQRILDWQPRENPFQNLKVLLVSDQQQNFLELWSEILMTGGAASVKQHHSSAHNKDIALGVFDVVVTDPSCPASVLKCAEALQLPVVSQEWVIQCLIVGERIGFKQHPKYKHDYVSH
Assay: affinity purification with mass spectrometry; USP28 and 53BP1 immunoprecipitates from unstressed cells, SDS-PAGE, in-gel digestion, LC-MS/MS
Settings: remark: other sources report otherwise

binding: binds
B1: USP28 (immunoprecipitates of unstressed cells), Q96RU2 1-1077 (enzyme)
chain: MTAELQQDDAAGAADGHGSSCQMLLNQLREITGIQDPSFLHEALKASNGDITQAVSLLTDERVKEPSQDTVATEPSEVEGSAANKEVLAKVIDLTHDNKDDLQAAIALSLLESPKIQADGRDLNRMHEATSAETKRSKRKRCEVWGENPNPNDWRRVDGWPVGLKNVGNTCWFSAVIQSLFQLPEFRRLVLSYSLPQNVLENCRSHTEKRNIMFMQELQYLFALMMGSNRKFVDPSAALDLLKGAFRSSEEQQQDVSEFTHKLLDWLEDAFQLAVNVNSPRNKSENPMVQLFYGTFLTEGVREGKPFCNNETFGQYPLQVNGYRNLDECLEGAMVEGDVELLPSDHSVKYGQERWFTKLPPVLTFELSRFEFNQSLGQPEKIHNKLEFPQIIYMDRYMYRSKELIRNKRECIRKLKEEIKILQQKLERYVKYGSGPARFPLPDMLKYVIEFASTKPASESCPPESDTHMTLPLSSVHCSVSDQTSKESTSTESSSQDVESTFSSPEDSLPKSKPLTSSRSSMEMPSQPAPRTVTDEEINFVKTCLQRWRSEIEQDIQDLKTCIASTTQTIEQMYCDPLLRQVPYRLHAVLVHEGQANAGHYWAYIYNQPRQSWLKYNDISVTESSWEEVERDSYGGLRNVSAYCLMYINDKLPYFNAEAAPTESDQMSEVEALSVELKHYIQEDNWRFEQEVEEWEEEQSCKIPQMESSTNSSSQDYSTSQEPSVASSHGVRCLSSEHAVIVKEQTAQAIANTARAYEKSGVEAALSEVMLSPAMQGVILAIAKARQTFDRDGSEAGLIKAFHEEYSRLYQLAKETPTSHSDPRLQHVLVYFFQNEAPKRVVERTLLEQFADKNLSYDERSISIMKVAQAKLKEIGPDDMNMEEYKKWHEDYSLFRKVSVYLLTGLELYQKGKYQEALSYLVYAYQSNAALLMKGPRRGVKESVIALYRRKCLLELNAKAASLFETNDDHSVTEGINVMNELIIPCIHLIINNDISKDDLDAIEVMRNHWCSYLGQDIAENLQLCLGEFLPRLLDPSAEIIVLKEPPTIRPNSPYDLCSRFAAVMESIQGVSTVTVK
